Article PMC12037730 (Nature Communications, 2025)
These are yes or no findings as the source states them, for the method shown. Binding seen in cells or lysates may run through a third protein. Some entries that bind do so weakly or less than the wild type. Where a sequence is shown, tags or fusion partners need not be part of it.

Chains of the proteins cited; added tags and fusions are not shown.
UniProt P31153: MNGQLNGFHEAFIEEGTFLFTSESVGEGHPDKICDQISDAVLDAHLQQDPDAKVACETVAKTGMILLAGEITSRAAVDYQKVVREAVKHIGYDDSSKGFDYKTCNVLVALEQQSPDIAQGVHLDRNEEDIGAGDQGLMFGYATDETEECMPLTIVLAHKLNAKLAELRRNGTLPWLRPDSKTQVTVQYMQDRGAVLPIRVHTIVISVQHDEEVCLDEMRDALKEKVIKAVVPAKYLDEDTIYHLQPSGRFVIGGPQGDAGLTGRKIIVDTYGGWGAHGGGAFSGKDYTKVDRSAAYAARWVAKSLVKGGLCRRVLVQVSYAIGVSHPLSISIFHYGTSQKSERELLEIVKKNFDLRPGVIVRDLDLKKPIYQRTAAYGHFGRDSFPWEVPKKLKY

Columns and labels:
[1] = biological target: T1, Flag-tagged PRPS2 (phosphoribosyl pyrophosphate synthetase 2) (human) (UniProt P11908); test: co-IP; HEK293FT/HEK293T cells transfected with FLAG-PRPS2 and HA-(GFP-)MAT2A; lysis buffer 20 mM tris-HCl pH 7.5, 150 mM NaCl, 0.5 mM EDTA, 0.5% NP-40; anti-FLAG M2 or anti-HA magnetic beads overnight at 4 °C; Western blot
T1 sequence: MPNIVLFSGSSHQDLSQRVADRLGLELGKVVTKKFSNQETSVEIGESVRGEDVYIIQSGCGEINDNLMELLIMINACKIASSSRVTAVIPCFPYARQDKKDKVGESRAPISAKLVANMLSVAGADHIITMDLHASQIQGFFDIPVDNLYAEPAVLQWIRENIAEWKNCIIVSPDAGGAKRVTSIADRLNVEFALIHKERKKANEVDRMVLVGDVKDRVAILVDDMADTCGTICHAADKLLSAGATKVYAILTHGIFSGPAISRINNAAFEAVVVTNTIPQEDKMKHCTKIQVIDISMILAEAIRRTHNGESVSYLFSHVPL

[2] = biological target: T1, Flag-tagged PRPS2 (phosphoribosyl pyrophosphate synthetase 2) (human); test: pull-down; Flag-tag based high-affinity pulldown from H1299 and HEK293T (HEK293FT in the text) stable cell lines ectopically expressing Flag-tagged PRPS2 or PRPS1, to trap endogenous interacting proteins; how the proteins were identified is not told
GFP-HA-tagged MAT2A = GFP-HA-tagged MAT2A (UniProt P31153); test: co-IP; HEK293FT/HEK293T cells transfected with FLAG-PRPS2 and HA-(GFP-)MAT2A; lysis buffer 20 mM tris-HCl pH 7.5, 150 mM NaCl, 0.5 mM EDTA, 0.5% NP-40; anti-FLAG M2 or anti-HA magnetic beads overnight at 4 °C; Western blot

## GFP-HA-tagged MAT2A (from UniProt P31153 1-395) (enzyme)
[1]
  binding: binds

## endogenous MAT2A (methionine adenosyltransferase 2A) (from UniProt P31153 1-395) (enzyme)
[2]
  binding: binds

B1: recombinant PRPS2 (enzyme, human, UniProt P11908-2 1-321, looked up)
chain: MPNIVLFSGSSHQDLSQRVADRLGLELGKVVTKKFSNQETSVEIGESVRGEDVYIIQSGCGEINDNLMELLIMINACKIASSSRVTAVIPCFPYARQDKKDKVGESRAPISAKLVANMLSVAGADHIITMDLHASQIQGFFDIPVDNLYAEPAVLQWIRENIAEWKNCIIVSPDAGGAKRVTSIADRLNVEFALIHKERKKANEVDRMVLVGDVKDRVAILVDDMADTCGTICHAADKLLSAGATKVYAILTHGIFSGPAISRINNAAFEAVVVTNTIPQEDKMKHCTKIQVIDISMILAEAIRRTHNGESVSYLFSHVPL
notes: PRPS2, human, full-length gene synthesised and subcloned into pSumo; the form with V103, G104, E105 (3AA) in Loop2 and Q156, i.e. the 321-residue isoform; Crystallised with R5P, ApCpp and Cd2+; source: E. coli BL21(DE3), purified (Ni-NTA, ion exchange, Superdex-200); not shown: His-Sumo, N-terminal, cleaved
GFP-HA-tagged MAT2A
  binding: binds
